Measured values: patent publication US6617427
These are yes or no findings as the source states them, for the method shown. Some entries that bind do so weakly or less than the wild type. Tags and fused reporters may be left off the sequences shown.

By UniProt entry, the sequences of proteins in these tests, tags left out. Where a name states a change or a piece, a line headed by the entry shows the natural chain unless it says otherwise.
UniProt P0A7C2: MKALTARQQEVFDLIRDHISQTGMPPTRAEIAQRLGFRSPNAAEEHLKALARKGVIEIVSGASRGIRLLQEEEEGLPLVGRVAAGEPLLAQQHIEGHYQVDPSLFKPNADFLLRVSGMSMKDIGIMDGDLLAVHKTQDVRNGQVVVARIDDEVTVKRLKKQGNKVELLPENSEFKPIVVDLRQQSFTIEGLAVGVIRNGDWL

Molecular target: LexA-Raf-1 (human) (UniProt P0A7C2+P04049)
Experiment: yeast two-hybrid

binding: binds
B1: B42-Tvl-1 fusion (Tvl-1 a.a. 81-269 fused to the activation domain B42) (protein, not shown: large carriers)
chain: VSALPATLDSLSIHQLAAQGELSQLKDHLRKGACPACTCLSGNNLINKPDERGFTPLIWASAFGEIETVRFLLDWGADPHILAKERESALSLASMGGYTDIVRLLLDRDVDINIYDWNGGTPLLYAVRGNHVKCVEALLARGADLTTEADSGYTPMDLAVALGYRKVQQVMESHILRLFQSTLGPVDPE
